Test results from patent US20240116985A1, “STAPLED PEPTIDES AND METHODS THEREOF” (priority 2020, published 2024).
Part of at least one peptide drawing is inferred or uncertain, most often the ends. For part of these data: At least one structure is not confirmed: it was looked up by name or label, or the drawing left a doubt.

Columns and labels:
[1] = biological target: T1, full-length beta-Catenin (Uniprot ID P35222) (Homo sapiens, UniProt P35222); test: Fluorescence polarization IC50 (beta-catenin / 5FAM-TCF4 10-53 competition); assay type: binding; conditions: read-out: beta-Catenin FP IC50
T1 construct: 10 nM full-length beta-Catenin (Uniprot ID P35222)
T1 sequence (P35222 1-781): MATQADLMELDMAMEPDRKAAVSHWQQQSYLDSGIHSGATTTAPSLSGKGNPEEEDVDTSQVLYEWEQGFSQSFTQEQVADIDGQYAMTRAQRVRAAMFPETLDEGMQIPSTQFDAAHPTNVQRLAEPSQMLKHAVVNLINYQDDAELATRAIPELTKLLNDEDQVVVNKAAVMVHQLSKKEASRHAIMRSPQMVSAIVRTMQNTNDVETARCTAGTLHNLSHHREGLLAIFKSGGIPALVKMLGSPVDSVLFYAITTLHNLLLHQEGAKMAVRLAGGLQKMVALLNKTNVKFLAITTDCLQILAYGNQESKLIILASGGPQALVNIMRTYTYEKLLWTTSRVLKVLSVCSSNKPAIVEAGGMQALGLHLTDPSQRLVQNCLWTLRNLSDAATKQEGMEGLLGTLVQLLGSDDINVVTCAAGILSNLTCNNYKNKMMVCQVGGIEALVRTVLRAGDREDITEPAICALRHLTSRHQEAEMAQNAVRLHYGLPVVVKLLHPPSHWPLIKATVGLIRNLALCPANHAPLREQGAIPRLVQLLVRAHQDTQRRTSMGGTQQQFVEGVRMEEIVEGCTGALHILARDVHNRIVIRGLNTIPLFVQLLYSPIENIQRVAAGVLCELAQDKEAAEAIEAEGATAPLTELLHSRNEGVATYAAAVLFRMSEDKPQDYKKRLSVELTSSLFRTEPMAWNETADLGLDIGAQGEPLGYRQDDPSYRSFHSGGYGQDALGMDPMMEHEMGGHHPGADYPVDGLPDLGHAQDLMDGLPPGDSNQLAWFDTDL

[2] = biological target: T2, beta-catenin/TCF4 engagement (Homo sapiens, UniProt P35222); test: Nano-BRET target engagement assay (B-cat-Halo & TCF4-Luc in HEK293 cells); assay type: cell-based; conditions: absolute IC50; read-out: NanoBRET Abs IC50
T2 construct: expressed in transfected cells; host or cells: HEK293
T2 sequence (P35222 1-781): T1 sequence (P35222 1-781)

[3] = tested on: TCF/LEF luciferase Reporter in DLD1 cells; test: TCF reporter assay (DLD1 TCF/LEF luciferase reporter, Bright-Glo); assay type: cell-based; conditions: read-out: DLD1 4% Abs IC50, absolute IC50
From the text: Those skilled in the art will appreciate that other suitable reagents may be utilized and various parameters may be adjusted.
DLD1 reporter cell line was generated by using TCF/LEF luciferase Reporter Lentivirus (BPS Bioscience Catalog #79787). Parental DLD1 cells (ATCC@ CCL-221) were transfected with the lentivirus and followed by 3-day puromycin selection. Single clone was selected for Reporter assay.
On Day 1, cultured cells in flasks that are no more than about 60-70% confluent were washed with PBS and typsinized in 3 mL/T75 until cells were free floating. Spin down cells for 5 minutes at 1100RPM. While cells spin, determine the number of plates (3 compounds per plate) needed. After spinning, aspirate the supernatant gently and add 10 mL media (RPMI+4% FBS), and re-suspend and mix the cells gently. Count the cells twice in the cell counter Countess and take average of both the counts, and determine how many cells are needed. […]
On Day 3, luciferase levels were assessed using Bright-Glo (Promega). […] When ready to read, remove plates from incubator and let sit at room temperature for 15 minutes. Typically stagger taking out plates if reading multiple plates before adding the Bright-Glo. […] Read luminescence on GloMax immediately using ‘BrightGlo’ programs.
Cellular activity was assessed using CTG. […] Read luminesence using program ‘CellTiter-Glo’. […]

Row | SMILES | IC50 [1] [nM] | IC50 [2] [nM] | IC50 [3] [nM]
1 | CC(=O)N1CCC[C@]12CC=CCCCC1(CCCC=CCCCOC(=O)N3CC[C@@](C(=O)N[C@@H](Cc4ccsc4)C(=O)N[C@@H](Cc4csc5ccccc45)C(=O)N[C@@H](CCC(N)=O)C(N)=O)(C3)NC(=O)[C@H](CC(C)C)NC(=O)[C@@H](Cc3cccc(S(=O)(=O)F)c3)NC(=O)[C@H](C)NC(=O)[C@H](C)NC(=O)[C@H](CN(CC(=O)O)CC(F)(F)F)NC(=O)[C@H](CC(=O)O)NC1=O)NC(=O)[C@H](CC(C)(C)C)NC(=O)[C@H](CC(=O)O)NC2=O (single isomer, unassigned) [I-2184, Ac-PL3-Asp-Npg-B5-Asp-TfeGA-Ala-Ala-3SO2F-Leu-PyrS2-3Thi-BztA-Gln-NH2] | 358 |  | 
2 | CC(=O)N1CCC[C@]12CC=CCCCC1(CCCC=CCCCOC(=O)N3CC[C@@](C(=O)N[C@@H](Cc4ccccc4Cl)C(=O)N[C@@H](Cc4csc5ccccc45)C(=O)N[C@H](CO)[C@@H](C)O)(C3)NC(=O)[C@H](CC(C)C)NC(=O)[C@H](Cc3ccccc3)NC(=O)[C@H](C)NC(=O)[C@H](C)NC(=O)[C@H](Cc3cccc(C(=O)O)c3)NC(=O)[C@H](CC(=O)O)NC1=O)NC(=O)[C@H](CC(C)(C)C)NC(=O)[C@H](CC(=O)O)NC2=O (stereo partly drawn) [I-1334, PL3-Asp-Npg-B5-Asp-3COOHF-Ala-Ala-Phe-Leu-PyrS2-2C1F-BztA-Thro1] | 30 | 4200 | 2200
3 | CC(=O)N1CCC[C@]12CC=CCCCC1(CCCC=CCCCOC(=O)N3CC[C@@](C(=O)N[C@@H](Cc4ccccc4C(F)(F)F)C(=O)N[C@@H](Cc4csc5ccccc45)C(=O)N[C@H](CO)[C@@H](C)O)(C3)NC(=O)[C@H](CC(C)C)NC(=O)[C@H](Cc3ccccc3)NC(=O)[C@H](C)NC(=O)[C@H](C)NC(=O)[C@H](Cc3cccc(C(=O)O)c3)NC(=O)[C@H](CC(=O)O)NC1=O)NC(=O)[C@H](CC(C)(C)C)NC(=O)[C@H](CC(=O)O)NC2=O (stereo partly drawn) [I-1337, PL3-Asp-Npg-B5-Asp-3COOHF-Ala-Ala-Phe-Leu-PyrS2-2F3MeF-BztA-Thro1] | 85 | 6200 | 
